In publication PMC11671618 one finds binding data, which are given here for 1 substance.

Sequences of proteins named here, by UniProt entry; tags and fusion partners are left off.
UniProt Q9UMX0: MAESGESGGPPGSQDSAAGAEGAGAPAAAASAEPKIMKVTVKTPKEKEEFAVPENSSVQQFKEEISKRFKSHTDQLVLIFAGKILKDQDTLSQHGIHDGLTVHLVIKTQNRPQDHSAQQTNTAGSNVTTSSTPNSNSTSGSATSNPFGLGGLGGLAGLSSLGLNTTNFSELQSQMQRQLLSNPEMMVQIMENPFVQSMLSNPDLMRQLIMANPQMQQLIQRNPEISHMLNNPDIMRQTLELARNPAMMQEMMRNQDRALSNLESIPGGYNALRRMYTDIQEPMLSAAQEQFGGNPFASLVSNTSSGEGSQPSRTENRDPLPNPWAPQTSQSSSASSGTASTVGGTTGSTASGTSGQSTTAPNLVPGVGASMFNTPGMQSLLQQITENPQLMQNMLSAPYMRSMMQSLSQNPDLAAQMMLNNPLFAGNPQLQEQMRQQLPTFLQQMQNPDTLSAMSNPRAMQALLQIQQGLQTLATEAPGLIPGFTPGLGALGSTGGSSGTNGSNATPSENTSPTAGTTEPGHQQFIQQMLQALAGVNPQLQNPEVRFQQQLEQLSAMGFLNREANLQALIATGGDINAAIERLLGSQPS

Results are given in words; binding and its absence hold for the method and conditions named. Binding seen in cells or lysates may run through a third protein. Some entries that bind do so weakly or less than the wild type. Sequences can lack the tags named with a protein.

For this experiment, the target named is T1, Beclin 2-Flag (UniProt A8MW95).
T1 sequence: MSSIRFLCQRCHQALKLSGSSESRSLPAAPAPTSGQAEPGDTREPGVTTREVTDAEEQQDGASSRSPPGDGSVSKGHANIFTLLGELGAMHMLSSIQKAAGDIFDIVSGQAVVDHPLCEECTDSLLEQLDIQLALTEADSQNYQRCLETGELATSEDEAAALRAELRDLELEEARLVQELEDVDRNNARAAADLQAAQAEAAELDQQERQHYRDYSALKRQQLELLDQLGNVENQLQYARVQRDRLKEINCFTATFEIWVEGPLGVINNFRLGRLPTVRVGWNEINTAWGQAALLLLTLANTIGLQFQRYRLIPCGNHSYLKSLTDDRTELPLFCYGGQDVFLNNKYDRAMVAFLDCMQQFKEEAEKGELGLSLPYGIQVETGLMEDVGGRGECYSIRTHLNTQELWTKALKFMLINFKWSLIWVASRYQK
The experiment is described as follows: co-IP; Co-IP and Western blot in MDA-MB-231 cells; Flag antibody or mouse IgG control, protein A/G magnetic beads, immunoblot.

As to Ubiquilin 1 (from UniProt Q9UMX0 1-589), the binding result is listed as “binds”.
